Measurements reported in PubChem BioAssay AID1224827 (NIAID, 2016).
Purpose: 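Identify regulators of the macrophage TNF-alpha response to bacterial LPS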 (follow-up of hits). Cell system: RAW264.7 G9 mouse macrophage reporter clone. Reagents: single siRNA against mouse genes, 100 nM siRNA. Duration: siRNA for 2 days, then LPS about 16 h. Challenge: bacterial lipopolysaccharide (LPS), 10 ng/ml, cells fixed after overnight (about 16 h) stimulation. Read-out: 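Imaged nuclear TNF reporter intensity, background removed, scaled per plate and to non-targeting control wells, as z-scores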. Scale: TNF reporter z-score, mean: higher = stronger Tnf promoter reporter signal; gene median z, three same-vendor siRNAs: higher = stronger Tnf reporter signal for the gene. Active means: 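An siRNA is called active when its mean z-score over replicates is at least +2 or at most -2; control wells get no call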.
The whole screen tested about 3,800 reagents; shown is a random part of them. About 2,200 of them (57%) count as active. 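Active means a strong reporter change in either direction; calls are per siRNA, not per gene; qiagen siRNAs gave weaker effects.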 Entries without a mark were called inactive. Reagents against one gene are numbered here. Not all columns of the deposit are shown.

With Psmb7 #1, what does the deposit list?
TNF reporter z-score, mean: -0.659; gene median z, three same-vendor siRNAs: -2.35

What is on record for Psmb7 #2?
TNF reporter z-score, mean: -2.35 (active); gene median z, three same-vendor siRNAs: -2.35

Which result is listed for Psmb7 #3?
TNF reporter z-score, mean: -3.61 (active); gene median z, three same-vendor siRNAs: -2.35

For Ptprn2 #1, what does the deposit list?
TNF reporter z-score, mean: -3.62 (active); gene median z, three same-vendor siRNAs: -4.01

For Ptprn2 #2, what was measured?
TNF reporter z-score, mean: -3.8 (active); gene median z, three same-vendor siRNAs: -4.01

How did the screen score Ptprn2 #3?
TNF reporter z-score, mean: -4.66 (active); gene median z, three same-vendor siRNAs: -4.01

How did the screen score Ptprn2 #4?
TNF reporter z-score, mean: 1.13; gene median z, three same-vendor siRNAs: -1

For Ptprn2 #5, what does the deposit list?
TNF reporter z-score, mean: 0.589; gene median z, three same-vendor siRNAs: -1

With Ptprn2 #6, what was measured?
TNF reporter z-score, mean: -3.73 (active); gene median z, three same-vendor siRNAs: -1

What is on record for Cd52 #1?
TNF reporter z-score, mean: -0.191; gene median z, three same-vendor siRNAs: -3.41

How did the screen score Cd52 #2?
TNF reporter z-score, mean: -3.6 (active); gene median z, three same-vendor siRNAs: -3.41

With Cd52 #3, what was measured?
TNF reporter z-score, mean: -3.94 (active); gene median z, three same-vendor siRNAs: -3.41

What is on record for Cd52 #4?
TNF reporter z-score, mean: 0.53; gene median z, three same-vendor siRNAs: -1.14

With Cd52 #5, what does the deposit list?
TNF reporter z-score, mean: -1.18; gene median z, three same-vendor siRNAs: -1.14

With Cd52 #6, what was measured?
TNF reporter z-score, mean: -1.74; gene median z, three same-vendor siRNAs: -1.14

For Atp1b3 #1, what does the deposit list?
TNF reporter z-score, mean: -1.07; gene median z, three same-vendor siRNAs: -3.36

For Atp1b3 #2, how do the results read?
TNF reporter z-score, mean: -3.36 (active); gene median z, three same-vendor siRNAs: -3.36

How did the screen score Atp1b3 #3?
TNF reporter z-score, mean: -5.14 (active); gene median z, three same-vendor siRNAs: -3.36

What is on record for Atp1b3 #4?
TNF reporter z-score, mean: 2.67 (active); gene median z, three same-vendor siRNAs: 1.45

How did the screen score Atp1b3 #5?
TNF reporter z-score, mean: 1.42; gene median z, three same-vendor siRNAs: 1.45

What is on record for Atp1b3 #6?
TNF reporter z-score, mean: 0.896; gene median z, three same-vendor siRNAs: 1.45

For Syk #1, what does the deposit list?
TNF reporter z-score, mean: -1.04; gene median z, three same-vendor siRNAs: -1.8

For Syk #2, what was measured?
TNF reporter z-score, mean: -2.23 (active); gene median z, three same-vendor siRNAs: -1.8

With Syk #3, what does the deposit list?
TNF reporter z-score, mean: -2.23 (active); gene median z, three same-vendor siRNAs: -1.8

For Syk #4, what does the deposit list?
TNF reporter z-score, mean: 0.0571; gene median z, three same-vendor siRNAs: -1.89

For Syk #5, how do the results read?
TNF reporter z-score, mean: -1.73; gene median z, three same-vendor siRNAs: -1.89

Which result is listed for Syk #6?
TNF reporter z-score, mean: -1.97; gene median z, three same-vendor siRNAs: -1.89

For C3ar1 #1, how do the results read?
TNF reporter z-score, mean: -3.08 (active); gene median z, three same-vendor siRNAs: -3.63

For C3ar1 #2, what was measured?
TNF reporter z-score, mean: -3.81 (active); gene median z, three same-vendor siRNAs: -3.63

What did the screen give for C3ar1 #3?
TNF reporter z-score, mean: -4.03 (active); gene median z, three same-vendor siRNAs: -3.63

For C3ar1 #4, how do the results read?
TNF reporter z-score, mean: 0.553; gene median z, three same-vendor siRNAs: 0.181

With C3ar1 #5, what does the deposit list?
TNF reporter z-score, mean: -0.142; gene median z, three same-vendor siRNAs: 0.181

For C3ar1 #6, what does the deposit list?
TNF reporter z-score, mean: -0.0772; gene median z, three same-vendor siRNAs: 0.181

Which result is listed for Hdac4 #1?
TNF reporter z-score, mean: -0.734; gene median z, three same-vendor siRNAs: -2.49

For Hdac4 #2, what was measured?
TNF reporter z-score, mean: -2.5 (active); gene median z, three same-vendor siRNAs: -2.49

For Hdac4 #3, what was measured?
TNF reporter z-score, mean: -3.28 (active); gene median z, three same-vendor siRNAs: -2.49

For Hdac4 #4, how do the results read?
TNF reporter z-score, mean: 0.577; gene median z, three same-vendor siRNAs: -1.82

With Hdac4 #5, what does the deposit list?
TNF reporter z-score, mean: -1.9; gene median z, three same-vendor siRNAs: -1.82

Which result is listed for Hdac4 #6?
TNF reporter z-score, mean: -2.56 (active); gene median z, three same-vendor siRNAs: -1.82

With Klk1 #1, how do the results read?
TNF reporter z-score, mean: -1.88; gene median z, three same-vendor siRNAs: -3.92

Which result is listed for Klk1 #2?
TNF reporter z-score, mean: -4.07 (active); gene median z, three same-vendor siRNAs: -3.92

How did the screen score Klk1 #3?
TNF reporter z-score, mean: -5.14 (active); gene median z, three same-vendor siRNAs: -3.92

How did the screen score Klk1 #4?
TNF reporter z-score, mean: 2.46 (active); gene median z, three same-vendor siRNAs: 0.191

With Klk1 #5, what was measured?
TNF reporter z-score, mean: 1.61; gene median z, three same-vendor siRNAs: 0.191

Which result is listed for Klk1 #6?
TNF reporter z-score, mean: -4.03 (active); gene median z, three same-vendor siRNAs: 0.191

6 entries from above, reformatted.
gene,reagent,"TNF reporter z-score, mean","gene median z, three same-vendor siRNAs"
Hdac4,5,-1.9,-1.82
Hdac4,6,-2.56 (active),-1.82
Klk1,1,-1.88,-3.92
Klk1,2,-4.07 (active),-3.92
Klk1,3,-5.14 (active),-3.92
Klk1,4,2.46 (active),0.191
